No constants are given. Whether binding was seen depends on the method and setting. In cells and extracts the contact can be indirect. Some binding calls cover weakened binding; strength is not graded here. Sequences can lack the tags named with a protein.

Results on one molecule are retold here after paper PMC9678360.

This assay has as its target T1, MmpL3-msfGFP (MmpL3 of M. tuberculosis fused to msfGFP) (M. tuberculosis) (UniProt P9WJV5).
T1 sequence: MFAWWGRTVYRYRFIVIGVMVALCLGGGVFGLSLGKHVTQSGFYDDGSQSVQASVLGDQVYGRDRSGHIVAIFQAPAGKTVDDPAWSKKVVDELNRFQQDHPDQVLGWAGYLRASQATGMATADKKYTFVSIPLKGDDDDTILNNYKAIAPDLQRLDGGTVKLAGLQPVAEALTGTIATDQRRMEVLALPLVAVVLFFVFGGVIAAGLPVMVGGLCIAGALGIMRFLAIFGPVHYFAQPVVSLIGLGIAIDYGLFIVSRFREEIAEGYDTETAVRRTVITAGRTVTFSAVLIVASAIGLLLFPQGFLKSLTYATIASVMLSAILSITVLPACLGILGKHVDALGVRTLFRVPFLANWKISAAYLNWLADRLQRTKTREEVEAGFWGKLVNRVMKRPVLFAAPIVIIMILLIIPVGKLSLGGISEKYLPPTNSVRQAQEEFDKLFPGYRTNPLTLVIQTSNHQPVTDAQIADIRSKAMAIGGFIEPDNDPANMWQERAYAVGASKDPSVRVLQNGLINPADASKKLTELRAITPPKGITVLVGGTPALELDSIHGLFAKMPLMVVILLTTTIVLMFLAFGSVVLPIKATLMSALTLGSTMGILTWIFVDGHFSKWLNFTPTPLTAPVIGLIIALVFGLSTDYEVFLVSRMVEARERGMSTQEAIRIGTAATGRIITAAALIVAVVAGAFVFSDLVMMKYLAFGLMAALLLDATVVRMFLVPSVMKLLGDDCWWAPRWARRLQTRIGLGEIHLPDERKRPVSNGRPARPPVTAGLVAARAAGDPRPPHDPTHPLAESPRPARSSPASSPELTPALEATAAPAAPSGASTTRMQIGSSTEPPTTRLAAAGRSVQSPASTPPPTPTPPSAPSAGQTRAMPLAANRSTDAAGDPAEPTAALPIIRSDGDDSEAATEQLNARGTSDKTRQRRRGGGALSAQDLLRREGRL
The assay can be described thus: co-IP; […]) in PBS, 30 min, 37°C; […].

B1: PgfA-3× FLAG (MSMEG_0317, Polar growth factor A, with a 3× FLAG tag) (protein, UniProt A0QP93 1-398)
chain: MNRAVALRIAACGLLGLGAALLIAALLLTTYTKGKIAKIPLDIDTSLVSDGTATAFDPDSLVAERFKIDRDVPVALQQQMSVEAPSNADVVTFQVGTTLRRTDRQQDAGLLLALVDTVTMNRNTAEAVSSENNPGGAVQKPRAIEDEKPPTNIALPHEGLTYRFPFDTEKKTYPFFDPIAQKAFDANYDGEEDVNGLTTYRFVQNVGYDADGKLADPIKYSSLYEDDADASVTARAEVWGVPGEPDESITMDRFYAASRTFWVDPVSGTIVKSEEHGYQYYAREALKPEVTYVDFKVTTNEESVESQVAAASDERDRIALWTRILPITFTALGLVSLVGGAVLGSFALRTESTLIDPGLDTADHGFFDTQGIQVPGAEAKTEKLPAQRPTDLPPDRPI
As for B1, the binding result is given as “binds”.
